# Measurements taken from patent US20190201419A1, “COMPOUND AND METHOD FOR THE TREATMENT AND DIAGNOSIS OF NEURODEGENERATIVE CONDITIONS” (Swansea University, priority 2013, published 2019).
# Experiments:
# [1] = LC-ESI-MSn of cholestenoic acids in mouse plasma; details: WT
# [2] = LC-ESI-MSn of cholestenoic acids in mouse brain; details: WT
# Description: Animals. Lxra,−/−β−/− mouse cell cultures were from the colony at the Department of Biosciences and Nutrition at Novum, Karolinska Institutet. Male and female wild-type and Lxrα−/−β−/− mice were generated as previously described (Alberti et al. J. Clin. Invest 2001:107(5), 565-73). Mice were back crossed onto a C57BL/6 background for 10 generations. Male Cyp7b1−/− mouse brain and plasma were from animals generated at the University of Edinburgh. Male mice homozygous for targeted disruption of the Cyp7b1 gene congenic on the C57BL/6 genetic background (>15 generations backcrossed to C57BL/6) and wild-type littermate controls were generated from Cyp7b1−/+ crosses. Male cyp27a1−/− mouse tissue and plasma was purchased from The Jackson Laboratory (ME, USA) strain B6.129-Cyp27a1^tm1Elt/J. The Cyp27a1−/− colony was backcrossed to C57BL/6J inbred mice for approximately 12 generations by the donating investigator prior to sending to The Jackson Laboratory Repository. Upon arrival, mice were bred to C57BL/6J inbred mice for at least one generation to establish the colony. Wild type animals from the colony were used as controls.
# Extraction of Sterols. […]
# Charge Tagging of Sterols. The sterols were charge-tagged with the GP-hydrazine to enhance their response when analysed by LC-ESI-MS and tandem mass spectrometry (MS^n).
SMILES,Mean concentration in plasma ± SD ([1]; 13 months) [ng/mL],Mean concentration in plasma ± SD ([1]; 23 months) [ng/mL],Mean concentration in brain ± SD ([2]; 13 months) [ng/mg],Mean concentration in brain ± SD ([2]; 23 months) [ng/mg]
"CC(CCC[C@@H](C)[C@H]1CC[C@H]2[C@@H]3CC=C4C[C@@H](O)CC[C@]4(C)[C@H]3CC[C@]12C)C(=O)O (stereo partly drawn) [3β-HCA, 3β-hydroxycholest-5-en-26-oic acid]",1.97 ± 0.72,1.75 ± 0.50,0.01 ± 0.00,0.01 ± 0.00
"CC(CCC[C@@H](C)[C@H]1CC[C@H]2[C@@H]3[C@H](O)CC4=CC(=O)CC[C@]4(C)[C@H]3CC[C@]12C)C(=O)O (stereo partly drawn) [7αH,3O-CA, 7α-hydroxy-3-oxocholest-4-en-26-oic acid]",25.89 ± 10.91,25.19 ± 9.44,–,–
